The supplement of paper PMC12067093, “Discovery and optimisation of a covalent ligand for TRIM25 and its application to targeted protein ubiquitination” (Chemical Science, 2025)
This is one part of the list.

Chains of the proteins cited; added tags and fusions are not shown. Lines headed by an entry give the natural chain unless they say otherwise; changes in a name come on top.
UniProt Q58EX7: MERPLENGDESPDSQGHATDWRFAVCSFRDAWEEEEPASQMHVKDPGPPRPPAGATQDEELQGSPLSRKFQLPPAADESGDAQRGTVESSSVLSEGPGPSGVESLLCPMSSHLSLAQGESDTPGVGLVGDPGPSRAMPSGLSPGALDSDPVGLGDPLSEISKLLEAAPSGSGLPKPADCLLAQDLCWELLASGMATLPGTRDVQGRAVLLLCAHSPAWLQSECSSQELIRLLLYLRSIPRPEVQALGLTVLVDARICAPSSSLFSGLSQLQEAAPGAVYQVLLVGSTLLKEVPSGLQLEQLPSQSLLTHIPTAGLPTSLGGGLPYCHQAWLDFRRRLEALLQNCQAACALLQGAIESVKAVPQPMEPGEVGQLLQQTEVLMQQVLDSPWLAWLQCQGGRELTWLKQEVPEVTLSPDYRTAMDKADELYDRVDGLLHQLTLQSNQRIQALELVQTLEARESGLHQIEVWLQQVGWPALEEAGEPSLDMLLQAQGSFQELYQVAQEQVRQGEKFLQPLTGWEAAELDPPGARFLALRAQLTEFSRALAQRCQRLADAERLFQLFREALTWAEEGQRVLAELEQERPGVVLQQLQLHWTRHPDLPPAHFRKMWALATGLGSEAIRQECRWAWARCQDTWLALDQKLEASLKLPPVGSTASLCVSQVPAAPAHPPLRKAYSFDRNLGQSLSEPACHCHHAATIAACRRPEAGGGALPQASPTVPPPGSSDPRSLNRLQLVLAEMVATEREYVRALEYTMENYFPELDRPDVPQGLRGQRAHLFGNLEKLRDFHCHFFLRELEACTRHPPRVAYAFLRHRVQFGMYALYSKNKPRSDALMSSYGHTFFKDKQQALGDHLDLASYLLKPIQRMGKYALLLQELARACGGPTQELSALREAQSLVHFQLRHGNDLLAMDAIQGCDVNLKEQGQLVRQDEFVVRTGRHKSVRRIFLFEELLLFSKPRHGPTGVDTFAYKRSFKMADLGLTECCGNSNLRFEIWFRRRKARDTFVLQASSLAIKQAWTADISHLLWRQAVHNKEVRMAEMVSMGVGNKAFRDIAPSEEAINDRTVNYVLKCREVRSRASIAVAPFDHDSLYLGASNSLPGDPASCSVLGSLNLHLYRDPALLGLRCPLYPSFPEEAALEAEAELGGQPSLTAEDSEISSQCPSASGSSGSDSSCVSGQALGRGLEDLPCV
UniProt P19174: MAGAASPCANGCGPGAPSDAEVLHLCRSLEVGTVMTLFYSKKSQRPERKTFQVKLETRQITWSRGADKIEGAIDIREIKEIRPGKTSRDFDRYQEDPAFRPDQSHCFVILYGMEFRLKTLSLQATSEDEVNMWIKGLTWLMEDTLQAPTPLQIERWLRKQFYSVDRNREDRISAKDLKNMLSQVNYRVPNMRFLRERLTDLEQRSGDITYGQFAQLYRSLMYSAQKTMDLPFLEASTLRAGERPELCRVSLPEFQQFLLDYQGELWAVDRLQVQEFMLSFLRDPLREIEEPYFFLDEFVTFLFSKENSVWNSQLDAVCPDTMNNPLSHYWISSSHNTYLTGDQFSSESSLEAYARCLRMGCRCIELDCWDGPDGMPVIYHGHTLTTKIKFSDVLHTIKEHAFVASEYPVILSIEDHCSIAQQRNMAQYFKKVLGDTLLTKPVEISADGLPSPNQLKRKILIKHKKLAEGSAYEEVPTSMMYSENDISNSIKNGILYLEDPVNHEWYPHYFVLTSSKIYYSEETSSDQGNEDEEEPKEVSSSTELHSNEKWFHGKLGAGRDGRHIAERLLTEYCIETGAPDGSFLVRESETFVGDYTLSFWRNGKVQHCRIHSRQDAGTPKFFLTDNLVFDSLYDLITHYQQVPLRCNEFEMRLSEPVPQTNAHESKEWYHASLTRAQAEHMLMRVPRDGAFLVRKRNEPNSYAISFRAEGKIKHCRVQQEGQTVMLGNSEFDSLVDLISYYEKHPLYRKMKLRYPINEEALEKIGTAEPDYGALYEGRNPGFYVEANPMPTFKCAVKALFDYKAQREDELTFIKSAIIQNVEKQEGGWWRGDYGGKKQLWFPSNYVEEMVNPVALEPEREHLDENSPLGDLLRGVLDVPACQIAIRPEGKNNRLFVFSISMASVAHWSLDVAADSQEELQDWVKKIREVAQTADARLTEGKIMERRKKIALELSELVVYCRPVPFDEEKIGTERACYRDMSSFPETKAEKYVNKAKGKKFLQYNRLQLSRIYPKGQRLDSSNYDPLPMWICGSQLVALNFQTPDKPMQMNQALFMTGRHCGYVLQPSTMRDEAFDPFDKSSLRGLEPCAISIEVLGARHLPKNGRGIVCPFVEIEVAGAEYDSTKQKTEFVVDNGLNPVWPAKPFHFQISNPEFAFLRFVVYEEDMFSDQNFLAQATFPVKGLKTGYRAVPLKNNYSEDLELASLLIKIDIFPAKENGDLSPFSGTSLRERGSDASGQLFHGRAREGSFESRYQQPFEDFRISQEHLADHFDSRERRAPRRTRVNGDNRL
UniProt O60664: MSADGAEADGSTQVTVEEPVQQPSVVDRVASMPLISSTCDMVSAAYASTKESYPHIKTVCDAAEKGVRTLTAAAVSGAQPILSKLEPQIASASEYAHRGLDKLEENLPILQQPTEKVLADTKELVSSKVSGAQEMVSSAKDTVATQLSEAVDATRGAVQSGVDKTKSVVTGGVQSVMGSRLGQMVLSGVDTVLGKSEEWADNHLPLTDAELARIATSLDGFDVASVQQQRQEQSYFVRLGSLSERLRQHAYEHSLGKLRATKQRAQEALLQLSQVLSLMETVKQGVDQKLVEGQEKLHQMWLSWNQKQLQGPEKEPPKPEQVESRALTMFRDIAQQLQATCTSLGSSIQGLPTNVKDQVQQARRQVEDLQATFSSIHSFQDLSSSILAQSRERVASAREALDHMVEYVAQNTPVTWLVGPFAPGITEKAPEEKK
UniProt Q96BZ4: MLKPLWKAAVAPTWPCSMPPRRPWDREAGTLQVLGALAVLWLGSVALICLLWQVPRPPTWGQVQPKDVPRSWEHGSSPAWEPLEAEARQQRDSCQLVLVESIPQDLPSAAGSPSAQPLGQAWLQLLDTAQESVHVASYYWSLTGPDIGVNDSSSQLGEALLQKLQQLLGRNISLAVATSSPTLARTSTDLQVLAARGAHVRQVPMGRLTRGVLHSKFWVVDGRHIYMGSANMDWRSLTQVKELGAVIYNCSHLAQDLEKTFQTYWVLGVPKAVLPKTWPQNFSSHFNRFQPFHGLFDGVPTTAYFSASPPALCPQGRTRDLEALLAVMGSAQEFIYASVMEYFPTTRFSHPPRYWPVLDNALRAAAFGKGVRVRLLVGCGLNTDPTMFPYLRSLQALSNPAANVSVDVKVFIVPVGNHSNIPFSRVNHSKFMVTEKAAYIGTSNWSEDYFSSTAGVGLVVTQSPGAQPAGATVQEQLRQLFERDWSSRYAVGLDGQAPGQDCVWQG
UniProt Q9NRX1: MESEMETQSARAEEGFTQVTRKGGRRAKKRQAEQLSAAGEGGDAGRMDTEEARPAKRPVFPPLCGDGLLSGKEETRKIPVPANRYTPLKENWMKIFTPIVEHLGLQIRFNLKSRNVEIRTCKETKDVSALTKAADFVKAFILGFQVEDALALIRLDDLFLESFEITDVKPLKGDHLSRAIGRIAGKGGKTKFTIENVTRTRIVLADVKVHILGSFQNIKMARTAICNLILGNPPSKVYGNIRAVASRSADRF
UniProt P48736: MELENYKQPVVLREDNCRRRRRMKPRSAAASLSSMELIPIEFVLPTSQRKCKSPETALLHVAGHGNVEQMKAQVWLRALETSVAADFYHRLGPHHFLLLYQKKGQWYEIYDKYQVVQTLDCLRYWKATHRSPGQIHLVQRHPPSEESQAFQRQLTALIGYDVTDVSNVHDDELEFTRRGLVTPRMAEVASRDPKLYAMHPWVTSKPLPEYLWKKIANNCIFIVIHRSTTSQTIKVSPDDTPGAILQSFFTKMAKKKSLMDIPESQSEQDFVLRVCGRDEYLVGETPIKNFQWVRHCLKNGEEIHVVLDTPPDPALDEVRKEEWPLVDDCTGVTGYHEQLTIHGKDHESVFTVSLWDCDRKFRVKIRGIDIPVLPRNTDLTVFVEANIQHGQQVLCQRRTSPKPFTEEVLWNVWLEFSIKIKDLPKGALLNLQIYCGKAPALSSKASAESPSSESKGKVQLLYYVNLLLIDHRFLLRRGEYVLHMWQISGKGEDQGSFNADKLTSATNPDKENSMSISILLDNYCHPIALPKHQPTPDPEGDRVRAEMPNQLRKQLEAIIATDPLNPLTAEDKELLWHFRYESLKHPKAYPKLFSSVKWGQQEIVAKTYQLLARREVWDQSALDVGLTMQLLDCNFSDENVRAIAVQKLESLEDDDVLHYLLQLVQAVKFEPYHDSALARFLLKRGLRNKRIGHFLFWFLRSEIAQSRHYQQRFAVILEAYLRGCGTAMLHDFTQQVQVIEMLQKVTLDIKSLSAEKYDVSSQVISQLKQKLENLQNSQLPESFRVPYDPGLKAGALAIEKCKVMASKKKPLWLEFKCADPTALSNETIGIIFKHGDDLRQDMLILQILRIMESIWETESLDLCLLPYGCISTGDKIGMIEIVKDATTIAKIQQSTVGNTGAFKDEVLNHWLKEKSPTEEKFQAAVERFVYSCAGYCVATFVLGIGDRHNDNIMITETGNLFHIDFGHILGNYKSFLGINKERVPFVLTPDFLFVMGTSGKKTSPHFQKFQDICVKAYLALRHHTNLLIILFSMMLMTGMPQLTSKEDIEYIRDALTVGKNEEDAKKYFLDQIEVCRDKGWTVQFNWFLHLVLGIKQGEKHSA
UniProt O60331: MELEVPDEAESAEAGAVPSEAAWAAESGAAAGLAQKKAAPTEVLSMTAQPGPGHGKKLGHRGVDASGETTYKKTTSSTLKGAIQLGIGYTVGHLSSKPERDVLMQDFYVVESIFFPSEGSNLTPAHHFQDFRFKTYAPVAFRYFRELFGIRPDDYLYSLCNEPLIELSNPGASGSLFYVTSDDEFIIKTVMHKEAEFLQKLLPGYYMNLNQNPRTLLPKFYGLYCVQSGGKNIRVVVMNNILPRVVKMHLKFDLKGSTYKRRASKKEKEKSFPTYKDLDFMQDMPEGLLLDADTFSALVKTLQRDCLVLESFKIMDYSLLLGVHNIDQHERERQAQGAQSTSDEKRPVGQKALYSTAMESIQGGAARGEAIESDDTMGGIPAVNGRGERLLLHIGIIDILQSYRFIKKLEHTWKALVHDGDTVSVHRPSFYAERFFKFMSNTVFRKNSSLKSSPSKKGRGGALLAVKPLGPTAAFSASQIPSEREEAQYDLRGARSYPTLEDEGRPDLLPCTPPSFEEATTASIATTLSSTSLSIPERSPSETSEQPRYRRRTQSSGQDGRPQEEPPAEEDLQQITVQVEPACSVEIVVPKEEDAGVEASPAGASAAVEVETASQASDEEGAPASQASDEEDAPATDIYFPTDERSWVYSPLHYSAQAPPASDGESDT
UniProt O00329: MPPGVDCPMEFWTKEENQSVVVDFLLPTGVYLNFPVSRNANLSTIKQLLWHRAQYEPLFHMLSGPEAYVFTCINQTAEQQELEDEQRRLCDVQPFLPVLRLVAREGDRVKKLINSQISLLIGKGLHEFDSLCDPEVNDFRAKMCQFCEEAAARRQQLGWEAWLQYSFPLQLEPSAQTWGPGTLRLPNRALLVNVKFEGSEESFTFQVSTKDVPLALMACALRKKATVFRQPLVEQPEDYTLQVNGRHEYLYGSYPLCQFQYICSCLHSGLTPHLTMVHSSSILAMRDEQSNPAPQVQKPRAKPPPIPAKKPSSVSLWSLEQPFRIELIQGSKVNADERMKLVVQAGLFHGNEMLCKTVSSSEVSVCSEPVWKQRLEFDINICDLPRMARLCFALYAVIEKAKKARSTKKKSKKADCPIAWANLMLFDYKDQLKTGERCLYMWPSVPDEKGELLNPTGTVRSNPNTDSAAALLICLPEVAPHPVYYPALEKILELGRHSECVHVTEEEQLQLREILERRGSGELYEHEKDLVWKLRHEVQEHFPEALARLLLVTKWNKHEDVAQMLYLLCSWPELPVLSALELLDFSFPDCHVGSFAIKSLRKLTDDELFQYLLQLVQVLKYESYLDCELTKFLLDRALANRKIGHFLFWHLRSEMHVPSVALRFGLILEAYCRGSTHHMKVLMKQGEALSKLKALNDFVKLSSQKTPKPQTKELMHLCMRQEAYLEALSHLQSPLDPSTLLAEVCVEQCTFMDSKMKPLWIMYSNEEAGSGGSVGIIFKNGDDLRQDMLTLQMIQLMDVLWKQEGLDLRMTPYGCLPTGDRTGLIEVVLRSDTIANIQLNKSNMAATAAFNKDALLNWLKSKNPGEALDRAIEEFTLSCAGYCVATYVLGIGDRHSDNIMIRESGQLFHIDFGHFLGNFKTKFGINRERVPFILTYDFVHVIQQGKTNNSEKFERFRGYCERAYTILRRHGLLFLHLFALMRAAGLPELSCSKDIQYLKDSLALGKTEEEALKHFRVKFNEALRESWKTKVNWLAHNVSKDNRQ

compound: CC1Cc2ccccc2N1C(=O)C1CCCN(C1)C(=O)CCl (mixture of isomers) [TRIM25 ligand 11 (diastereomer mixture)]; assay: probe-labelled cysteine peptide fold change vs DMSO (competition) (log2 fold change); higher = less target engagement (more negative = stronger competition); conditions: 50 µM; THP-1; incubation time: 4 h
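Further: competitive chemoproteomic profiling in live THP-1 cells with an iodoacetamide desthiobiotin (IA-DTB) probe, comparing probe-labelled peptide intensities in compound-treated cells against DMSO-treated controls.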

Row | Target | probe-labelled cysteine peptide fold change
1 | PLEKHG4_Q58EX7_917_HGNDLLAMDAIQGCDVNLK (UniProt Q58EX7) | -0.137
2 | PLCG1_P19174_1088_GLEPCAISIEVLGAR (UniProt P19174) | -0.198
3 | PLIN3_O60664_60_TVCDAAEK (UniProt O60664) | 0.041
4 | PLD4_Q96BZ4_379_LLVGCGLNTDPTMFPYLR (UniProt Q96BZ4) | 0.0738
5 | PITRM1_Q5JRX3_477_QCLQENPK (UniProt Q5JRX3) | 0.0295
6 | PNO1_Q9NRX1_226_TAICNLILGNPPSK (UniProt Q9NRX1) | 0.0727
7 | PIK3CG_P48736_817_CADPTALSNETIGIIFK (UniProt P48736) | 0.0517
8 | PIP5K1C_O60331_306_DCLVLESFK (UniProt O60331) | 0.118
9 | PINX1_Q96BK5_94_NNHLGLGATINNEDNWIAHQDDFNQLLAELNTCHGQETTDSSDKK (UniProt Q96BK5) | -0.00386
10 | PIK3CD_O00329_90_RLCDVQPFLPVLR (UniProt O00329) | 0.226
